Assay results taken from the supplement of paper PMC12889115.
This is one part of the list. Values are raw readings; no control value is given beside them.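 In the initial screen, polymyxin B was used at a concentration that permeabilizes Salmonella's outer membrane but not its inner membrane. Maximum growth was set by DMSO wells with or without polymyxin B. Since plates varied, data were ranked per plate, and compounds giving the lowest OD600 advanced as hits.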

Test system: Salmonella enterica serovar Typhimurium SL1344
Experiment: bacterial growth OD600 after 18 h with compound and polymyxin B; higher = more bacterial growth (less inhibition)
Conditions: 50 µM, Mueller-Hinton broth

| Structure (SMILES) | bacterial growth OD600 (polymyxin B 0.75 µg/mL) | bacterial growth OD600 (polymyxin B 1 µg/mL) |
| --- | --- | --- |
| CSc1ccc(C(=O)N2CCC(C(Cc3ccccc3)N(C)C(=O)c3ccccn3)CC2)cc1 (configuration not stated) | 0.715 |  |
| O=C(c1cc(Cn2ccc3ccccc32)[nH]n1)N1CCCCC1CCO (configuration not stated) |  | 0.881 |
| Cc1ncoc1C(=O)N1CCC(C2CCN(Cc3ccc(Cl)cc3)C2)CC1 (configuration not stated) | 1 |  |
| CNS(=O)(=O)c1sc2c(c1C(=O)OC)CCN(C(=O)c1cccc(C)c1C)C2 | 0.817 |  |
| CCC(O)C1CCN(C(=O)c2cc(COc3ccc(C(C)=O)cc3)on2)CC1 (configuration not stated) |  | 0.923 |
| COC(=O)c1cc(CNC(=O)c2ccccc2)cc(NS(=O)(=O)c2cccc(C(F)(F)F)c2)c1 | 0.715 |  |
| CC(CNC(=O)c1cc(CN2CCOCC2)on1)c1ccccc1 (configuration not stated) |  | 0.903 |
| Cc1c(-c2ccccc2F)[nH]c2ccc(CNC(=O)CCc3cnccn3)cc12 |  | 0.648 |
| O=C(NCc1ccc(OC(F)(F)F)cc1)c1cc(CN2CCOCC2)on1 |  | 0.911 |
| O=C(Nc1nc2c(s1)C(=O)CC(C(=O)N1CCCC(c3ccccc3)C1)C2)c1ccsc1 (configuration not stated) | 0.002 |  |
| CC(C)Cn1c(CN2CCCC2)cnc1S(=O)(=O)Cc1ccccc1 |  | 1.22 |
| CC(C)(O)C#Cc1ccc(C(=O)N2Cc3ccccc3OC(c3ccccc3)C2)cc1 (configuration not stated) | 0.002 |  |
| COc1cccc(NC(=O)N(C)CC2CCCN(CCc3ccccc3C)C2)c1 (configuration not stated) |  | 1.01 |
| CO[C@H]1[C@H](NC(=O)c2ccccn2)c2ccccc2C12CCN(C(=O)C1=C(C)OCCO1)CC2 | 0.782 |  |
| COc1ccccc1Oc1ncccc1CNS(=O)(=O)c1cccs1 |  | 0.851 |
| CC(=O)c1ccc(C(=O)N2CCCC(Nc3cccc(F)c3)C2)cc1 (configuration not stated) |  | 0.882 |

Entries from the list above containing a CF3 group:

| Structure (SMILES) | bacterial growth OD600 (polymyxin B 0.75 µg/mL) | bacterial growth OD600 (polymyxin B 1 µg/mL) |
| --- | --- | --- |
| COC(=O)c1cc(CNC(=O)c2ccccc2)cc(NS(=O)(=O)c2cccc(C(F)(F)F)c2)c1 | 0.715 |  |
| O=C(NCc1ccc(OC(F)(F)F)cc1)c1cc(CN2CCOCC2)on1 |  | 0.911 |

Remaining list, next part.

| Structure (SMILES) | bacterial growth OD600 (polymyxin B 0.75 µg/mL) | bacterial growth OD600 (polymyxin B 1 µg/mL) |
| --- | --- | --- |
| COC(=O)[C@@H](NC1CCN(c2ccc(NC(=O)C3CCCC3)cc2)CC1)c1ccccc1 | 0.909 |  |
| OCC1(Cc2ccccc2)CCCN(CCCC2CCCC2)C1 (configuration not stated) | 0.901 |  |
| CC#CC(=O)N1CCCC(C(=O)Nc2ccc(-c3cccc(F)c3)cc2)C1 (configuration not stated) |  | 0.701 |
| Cc1ccc(C)c(CN2CCC(CO)(Cc3ccccc3)CC2)c1 |  | 0.881 |
| Cc1ccn(CC(=O)NC2CC(=O)N(CC3CCCCC3)C2)n1 (configuration not stated) |  | 0.865 |
| CCOC(=O)N1CCN(C(=O)C2CC23CCN(C(=O)C2=CCCC2)CC3)CC1 (configuration not stated) | 0.981 |  |
| Cc1nc(C)c(CN(C)C2CCCN(CCc3ccccc3)C2)nc1C (configuration not stated) |  | 0.725 |
| CN(c1ncccc1CNc1ncccn1)C1CCCCC1 | 0.569 |  |
| CCOC(=O)C1(CCOc2ccccc2)CCN(S(=O)(=O)c2c(C)noc2C)CC1 |  | 0.834 |
| CC(NC(=O)c1cc(COc2ccccc2)on1)c1nccs1 (configuration not stated) |  | 0.775 |
| Nc1ncc(CN2CCCC(CNC(=O)CCc3ccccc3)C2)cn1 (configuration not stated) | 0.848 |  |
| COc1ccc(CN2CCC(C(Cc3ccccc3)N(C(=O)c3ccco3)C3CC3)CC2)cc1C (configuration not stated) | 0.004 |  |
| O=C(CC(c1cccc(O)c1)c1ccccc1Cl)N1CCCC1 (configuration not stated) |  | 0.523 |
| COCC(C)NC(=O)c1cc(COc2cccc(C(F)(F)F)c2)[nH]n1 (configuration not stated) |  | 0.87 |
| COc1ccc(C(=O)N2CCCC2)c(OC2CCN(Cc3ccc(SC)cc3)CC2)c1 |  | 1.15 |
| COc1ccc(OC2CCN(C3CCCC3)CC2)c(C(=O)NCCSC)c1 |  | 0.842 |
